# In patent US20060228313A1, “Method of cosmetic depigmentation care by applying at least one aurone” (Coletica, priority 2005, published 2006):
# At least one compound was matched to its structure with a doubt left.
# Biological target: T1, Human tyrosinase (Homo sapiens, UniProt P14679)
# T1 construct: Normal human melanocytes (originating from abdominal plasty) are sown in a 24-well plate; endogenous in cells; host or cells: normal human melanocytes (abdominal plasty; donors of light, brown and black phototype)
# T1 sequence (P14679 19-529): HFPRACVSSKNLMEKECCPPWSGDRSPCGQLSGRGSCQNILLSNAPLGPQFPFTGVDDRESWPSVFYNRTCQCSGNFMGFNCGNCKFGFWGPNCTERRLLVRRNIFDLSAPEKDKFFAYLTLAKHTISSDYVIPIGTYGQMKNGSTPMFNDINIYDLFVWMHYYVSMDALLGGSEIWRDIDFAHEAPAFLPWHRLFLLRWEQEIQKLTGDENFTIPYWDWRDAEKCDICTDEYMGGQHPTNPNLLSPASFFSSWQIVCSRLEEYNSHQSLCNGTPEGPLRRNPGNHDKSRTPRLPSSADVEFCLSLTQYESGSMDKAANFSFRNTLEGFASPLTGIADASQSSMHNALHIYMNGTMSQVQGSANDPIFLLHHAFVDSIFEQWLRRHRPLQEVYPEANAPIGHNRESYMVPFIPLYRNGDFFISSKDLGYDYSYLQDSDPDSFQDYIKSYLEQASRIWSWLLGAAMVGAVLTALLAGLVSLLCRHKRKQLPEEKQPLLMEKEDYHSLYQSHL
# Test: Inhibition of human tyrosinase in a monolayer after application of the actives on normal human melanocytes
# Assay type: cell-based
# Conditions: model of Example 15
# Method: Normal human melanocytes (originating from abdominal plasty) are sown in a 24-well plate at the rate of 80,000 cells per well. They are cultivated up to confluence and the actives are applied for 24 hours in the culture media. After 24 hours, the media are removed and the melanocytes are picked up by mechanical action. An extraction is made by heat shock and the supernatants are then recovered and then incubated with MBTH (Sigma) and L-Dopa (Sigma). The OD at 490 nm is measured after 30 minutes, and the inhibition is of the tyrosinase is calculated by comparing the OD at 490 nm to the protein level (measured in each culture well) of the test with respect to the ratio: OD 490 nm/concentration of protein of the negative control (non-treated control). […]
smiles,measurement,value
"O=c1cc(-c2ccccc2)oc2cc(O)cc(O)c12 [Chrysin, reference compound]","Inhibition of human tyrosinase on normal human melanocytes, result in words",do not inhibit tyrosinase
